Changes are numbered by the printed parent chain. Results are given in words; binding and its absence hold for the method and conditions named. Binding seen in cells or lysates may run through a third protein. Some binding calls cover weakened binding; strength is not graded here. For some assays here: Tags and fused reporters may be left off the sequences shown.

The values below come from paper doi:10.1101/2020.04.15.042515 (bioRxiv, 2020).

The target of experiment [1] is T1, WDR41, wild type, with a GST tag for pull down experiments (human) (UniProt Q9HAD4).
T1 sequence: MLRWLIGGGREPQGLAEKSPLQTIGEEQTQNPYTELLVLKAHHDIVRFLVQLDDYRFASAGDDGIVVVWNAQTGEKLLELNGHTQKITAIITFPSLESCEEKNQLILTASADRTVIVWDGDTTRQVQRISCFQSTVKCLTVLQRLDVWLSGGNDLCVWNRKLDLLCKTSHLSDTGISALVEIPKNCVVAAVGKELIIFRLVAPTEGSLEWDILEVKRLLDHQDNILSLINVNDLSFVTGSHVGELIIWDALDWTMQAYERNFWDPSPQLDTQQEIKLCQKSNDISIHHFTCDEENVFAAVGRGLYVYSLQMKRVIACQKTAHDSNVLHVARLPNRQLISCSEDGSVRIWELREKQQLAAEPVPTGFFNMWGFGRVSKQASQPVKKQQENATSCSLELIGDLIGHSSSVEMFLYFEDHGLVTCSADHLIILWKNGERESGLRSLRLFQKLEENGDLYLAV
The experiment can be described thus: pull-down.

Experiment [2] deals with T2, C9orf72, wild type, as used in the pull-down experiments (human) (UniProt Q96LT7).
T2 sequence: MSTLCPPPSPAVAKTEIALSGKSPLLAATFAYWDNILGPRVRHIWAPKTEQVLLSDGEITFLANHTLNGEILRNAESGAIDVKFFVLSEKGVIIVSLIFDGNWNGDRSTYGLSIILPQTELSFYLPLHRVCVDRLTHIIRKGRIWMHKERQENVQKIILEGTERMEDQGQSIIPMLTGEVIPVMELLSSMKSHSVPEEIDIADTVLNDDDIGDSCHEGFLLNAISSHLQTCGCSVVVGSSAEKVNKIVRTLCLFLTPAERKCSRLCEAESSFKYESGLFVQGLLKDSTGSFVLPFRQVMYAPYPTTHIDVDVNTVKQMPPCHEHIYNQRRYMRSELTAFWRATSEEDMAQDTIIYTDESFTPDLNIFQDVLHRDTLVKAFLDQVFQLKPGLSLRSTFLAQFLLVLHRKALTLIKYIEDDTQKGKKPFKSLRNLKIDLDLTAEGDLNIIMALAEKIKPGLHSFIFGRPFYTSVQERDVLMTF
Kind of experiment: pull-down.

B1: SMCR8^M5 (truncation after residue 910K) (domain or fragment, UniProt Q8TEV9 1-910)
chain: MISAPDVVAFTKEEEYEEEPYNEPALPEEYSVPLFPFASQGANPWSKLSGAKFSRDFILISEFSEQVGPQPLLTIPNDTKVFGTFDLNYFSLRIMSVDYQASFVGHPPGSAYPKLNFVEDSKVVLGDSKEGAFAYVHHLTLYDLEARGFVRPFCMAYISADQHKIMQQFQELSAEFSRASECLKTGNRKAFAGELEKKLKDLDYTRTVLHTETEIQKKANDKGFYSSQAIEKANELASVEKSIIEHQDLLKQIRSYPHRKLKGHDLCPGEMEHIQDQASQASTTSNPDESADTDLYTCRPAYTPKLIKAKSTKCFDKKLKTLEELCDTEYFTQTLAQLSHIEHMFRGDLCYLLTSQIDRALLKQQHITNFLFEDFVEVDDRMVEKQESIPSKPSQDRPPSSSLEECPIPKVLISVGSYKSSVESVLIKMEQELGDEEYKEVEVTELSSFDPQENLDYLDMDMKGSISSGESIEVLGTEKSTSVLSKSDSQASLTVPLSPQVVRSKAVSHRTISEDSIEVLSTCPSEALIPDDFKASYPSAINEEESYPDGNEGAIRFQASISPPELGETEEGSIENTPSQIDSSCCIGKESDGQLVLPSTPAHTHSDEDGVVSSPPQRHRQKDQGFRVDFSVENANPSSRDNSCEGFPAYELDPSHLLASRDISKTSLDNYSDTTSYVSSVASTSSDRIPSAYPAGLSSDRHKKRAGQNALKFIRQYPFAHPAIYSLLSGRTLVVLGEDEAIVRKLVTALAIFVPSYGCYAKPVKHWASSPLHIMDFQKWKLIGLQRVASPAGAGTLHALSRYSRYTSILDLDNKTLRCPLYRGTLVPRLADHRTQIKRGSTYYLHVQSMLTQLCSKAFLYTFCHHLHLPTHDKETEELVASRQMSFLKLTLGLVNEDVRVVQYLAELLK
Consider B1, for which, in experiment [1], the binding result is on record as “no binding”.

B2: Smith-Magenis syndrome chromosome region, candidate 8 (SMCR8), wild type (protein, UniProt Q8TEV9 1-937)
chain: MISAPDVVAFTKEEEYEEEPYNEPALPEEYSVPLFPFASQGANPWSKLSGAKFSRDFILISEFSEQVGPQPLLTIPNDTKVFGTFDLNYFSLRIMSVDYQASFVGHPPGSAYPKLNFVEDSKVVLGDSKEGAFAYVHHLTLYDLEARGFVRPFCMAYISADQHKIMQQFQELSAEFSRASECLKTGNRKAFAGELEKKLKDLDYTRTVLHTETEIQKKANDKGFYSSQAIEKANELASVEKSIIEHQDLLKQIRSYPHRKLKGHDLCPGEMEHIQDQASQASTTSNPDESADTDLYTCRPAYTPKLIKAKSTKCFDKKLKTLEELCDTEYFTQTLAQLSHIEHMFRGDLCYLLTSQIDRALLKQQHITNFLFEDFVEVDDRMVEKQESIPSKPSQDRPPSSSLEECPIPKVLISVGSYKSSVESVLIKMEQELGDEEYKEVEVTELSSFDPQENLDYLDMDMKGSISSGESIEVLGTEKSTSVLSKSDSQASLTVPLSPQVVRSKAVSHRTISEDSIEVLSTCPSEALIPDDFKASYPSAINEEESYPDGNEGAIRFQASISPPELGETEEGSIENTPSQIDSSCCIGKESDGQLVLPSTPAHTHSDEDGVVSSPPQRHRQKDQGFRVDFSVENANPSSRDNSCEGFPAYELDPSHLLASRDISKTSLDNYSDTTSYVSSVASTSSDRIPSAYPAGLSSDRHKKRAGQNALKFIRQYPFAHPAIYSLLSGRTLVVLGEDEAIVRKLVTALAIFVPSYGCYAKPVKHWASSPLHIMDFQKWKLIGLQRVASPAGAGTLHALSRYSRYTSILDLDNKTLRCPLYRGTLVPRLADHRTQIKRGSTYYLHVQSMLTQLCSKAFLYTFCHHLHLPTHDKETEELVASRQMSFLKLTLGLVNEDVRVVQYLAELLKLHYMQESPGTSHPMLRFDYVPSFLYKI
In the case of B2, the binding entry in experiment [2] and in experiment [1] was “binds” in each case.

B3: SMCR8^M3 (protein, UniProt Q8TEV9 1-937)
chain: B2 chain with S729G, R731K, T732G, L733S, V734G, V735G
Turning to B3, in experiment [1], the binding result is on record as “no binding”.

B4: SMCR8^M4 (protein, UniProt Q8TEV9 1-937)
chain: B2 chain with T807G, S808G, I809K, L810G, D811S
For the molecule B4, the binding result in experiment [1] was “no binding”.
